PubChem BioAssay AID504795, Drosophila RNAi Screening Center, 2011
Test: 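Genes required for normal axon extension and glial cell shape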 (primary screen). Cell system: primary Drosophila neurons and glia. Reagent: long dsRNA against Drosophila genes, 250 ng dsRNA per well. Timing: one week. Measured: 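Descriptive morphology terms assigned by visual inspection of live automated images of GFP-marked cells, taken one week after adding 250 ng dsRNA per well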.
This is not the whole library: the list holds selected reagents. 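Every listed dsRNA shows some phenotype; how reagents were selected for listing is not stated.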 A plus sign joins genes that one reagent is predicted to hit.

Target gene,dsRNA,"phenotype seen, replicate 1","phenotype seen, replicate 2"
CG2691,DRSC19866,sheet-like cell extensions,
Spase22-23 (Spase 22/23-subunit),DRSC15857,cell fragments present,
CG18540,DRSC06767,axon bundles split apart,
LIMK1 (LIM domain kinase 1),DRSC19811,too many neurite branches,
CG12209,DRSC06119,too many neurite branches,
lncRNA:CR32661 (long non-coding RNA:CR32661),DRSC19794,too many neurite branches,
jigr1 (jing interacting gene regulatory 1),DRSC13724,sheet-like cell extensions,
Adh + Adhr,DRSC01862,sheet-like cell extensions,
CG30492 (retired record) + M7BP,DRSC05055,reduced axon outgrowth,
CG30492 (retired record) + M7BP,DRSC06816,axon bundles split apart,
CG31368,DRSC14949,abnormal cell clusters,
CG18659,DRSC06784,axon bundles split apart,
CG2187,DRSC15425,abnormal cell clusters,
RpS11 (Ribosomal protein S11),DRSC07289,beaded; swollen axons,axon bundles split apart
RpS11 (Ribosomal protein S11),DRSC22700,axon bundles split apart,sheet-like cell extensions
Hesr (HES-related),DRSC19965,sheet-like cell extensions,
CCHa2-R (CCHamide-2 receptor),DRSC04825,too many neurite branches,
Rpn12 (Regulatory particle non-ATPase 12),DRSC11275,too many neurite branches,
CG5781,DRSC02893,cell fragments present,
CG15153,DRSC02454,too many neurite branches,
CG42390,DRSC15866,too many neurite branches,
BaraB (Baramicin B),DRSC06420,reduced axon outgrowth,
CG42500,DRSC14822,axon bundles split apart,
Med (Medea),DRSC16737,abnormal cell clusters,
Hibch (3-hydroxyisobutyryl-CoA hydrolase),DRSC15705,too many neurite branches,
Cep89 (Centrosomal protein 89kDa),DRSC07110,fewer cells,
Lmpt (Limpet),DRSC09866,cell fragments present,
Rpt6R (Regulatory particle triple-A ATPase 6-related),DRSC15431,axon bundles split apart,
PGRP-LC (Peptidoglycan recognition protein LC),DRSC10416,axon bundles split apart,
Polr1C (RNA polymerase I and III subunit C),DRSC02719,too many neurite branches,
"GalT1 (beta1,3-galactosyltransferase 1)",DRSC22238,too many neurite branches,
betaTub85D (beta-Tubulin at 85D),DRSC16910,sheet-like cell extensions,
CG7252,DRSC10789,axon bundles split apart,
CG7252,DRSC21492,axon bundles split apart,
Grx3 (Glutaredoxin 3),DRSC02966,axon bundles split apart,
CG13028,DRSC09908,axon bundles split apart,
eIF4A (eukaryotic translation initiation factor 4A),DRSC03526,beaded; swollen axons,
CG9222,DRSC03158,too many neurite branches,
CG17298,DRSC15221,too many neurite branches,
CG14221,DRSC19578,reduced axon outgrowth,
CG17292,DRSC02594,axon bundles split apart,
SMC6 (Structural maintenance of chromosomes 6),DRSC15829,abnormal cell clusters,
RpS7 (Ribosomal protein S7),DRSC15394,cell fragments present,
Brf (Brf RNA polymerase III subunit),DRSC14166,axon bundles split apart,
Brf (Brf RNA polymerase III subunit),DRSC14167,abnormal cell clusters,

In a second layout: entries from further up.
{"Target gene": "CG7252", "dsRNA": "DRSC10789", "phenotype seen, replicate 1": "axon bundles split apart"}
{"Target gene": "CG7252", "dsRNA": "DRSC21492", "phenotype seen, replicate 1": "axon bundles split apart"}
{"Target gene": "Grx3 (Glutaredoxin 3)", "dsRNA": "DRSC02966", "phenotype seen, replicate 1": "axon bundles split apart"}
{"Target gene": "CG13028", "dsRNA": "DRSC09908", "phenotype seen, replicate 1": "axon bundles split apart"}
{"Target gene": "eIF4A (eukaryotic translation initiation factor 4A)", "dsRNA": "DRSC03526", "phenotype seen, replicate 1": "beaded; swollen axons"}
